# Measured values published in PMC11701928, “Co-crystal structure of Helicobacter pylori biotin protein ligase with biotinyl-5-ATP” (Acta Crystallographica Section F: Structural Biology …, 2025).
# No constants are given. Whether binding was seen depends on the method and setting.
# B1: Helicobacter pylori biotin protein ligase (enzyme)
# chain: MRQCEKRVFDSLPSTQTYLLEKLKNNELKAPILIVAKNQSTGIGSRGNIWEGTKSALTFSLALNASDLPKDLPMQANALYLGFLFKEVLKELGSQTWLKWPNDLYLGDQKIGGVLVNVYKGMRVCGIGVNRVSKKWACLDIGASDDLIIEGFLKKIEENLFWGEVLSKYALEFHRSNSFSFHNDWGELVSLKDAELLEDGRICIKGKIYDRM
# Target: Helicobacter pylori biotin protein ligase (Helicobacter pylori (strain G27))
# Experiment: SEC; Superdex 75 26/60; SEC buffer 20 mM HEPES pH 7.0, 300 mM NaCl, 5%(v/v) glycerol, 1 mM TCEP; single peak at ~20 kDa (monomer expected 25 kDa); both purified
binder,measurement,value
B1,binding,no binding
